Laboratory results as given in article PMC9368931, “Involvement of a Cluster of Basic Amino Acids in Phosphorylation-Dependent Functional Repression of the Ceramide Transport Protein CERT” (International Journal of Molecular Sciences, 2022).
No constants are given. Whether binding was seen depends on the method and setting. Binding seen in cells or lysates may run through a third protein. Some entries that bind do so weakly or less than the wild type. Where a sequence is shown, tags or fusion partners need not be part of it.

Molecular target: T1, N-terminal FLAG-tagged VAP-A (vesicle-associated membrane protein-associated protein A) (human) (UniProt Q9P0L0)
T1 sequence: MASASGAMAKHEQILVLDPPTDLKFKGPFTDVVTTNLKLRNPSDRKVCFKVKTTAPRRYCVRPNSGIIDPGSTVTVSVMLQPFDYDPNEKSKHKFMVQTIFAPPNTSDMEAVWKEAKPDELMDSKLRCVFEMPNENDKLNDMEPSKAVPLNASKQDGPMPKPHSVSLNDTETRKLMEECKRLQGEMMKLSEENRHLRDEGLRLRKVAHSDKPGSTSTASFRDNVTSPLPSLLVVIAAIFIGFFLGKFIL
Experiment: co-IP; HA-CERT and FLAG-VAP-A co-expressed in CERT KO HeLa cells; cells cross-linked with 2 mM dithiobis(succinimidyl propionate) on ice 30 min before lysis in 1% Triton X-100; IP with anti-HA or anti-FLAG M2 agarose; cross-link cleaved with DTT; western blot

binding | Binder
binds | Recombinant human CERT S132A purified from Sf21 cells (natural protein, UniProt Q9Y5P4-2 1-598, looked up, Ceramide transport protein CERT (GPBPΔ26), human, printed length 598 amino acids; The template plasmid is named pBS/nHAcFL-CERT, which may mean a further C-terminal FLAG tag; Mainly a homo-trimer by cross-linking and blue native PAGE; not shown: HA, N-terminal, kept) MSDNQSWNSSGSEEDPETESGPPVERCGVLSKWTNYIHGWQDRWVVLKNNALSYYKSEDETEYGCRGSICLSKAVITPHDFDECRFDISVNDSVWYLRAQDPDHRQQWIDAIEQHKTESGYGSESSLRRHGAMVSLVSGASGYSATSTSSFKKGHSLREKLAEMETFRDILCRQVDTLQKYFDACADAVSKDELQRDKVVEDDEDDFPTTRSDGDFLHSTNGNKEKLFPHVTPKGINGIDFKGEAITFKATTAGILATLSHCIELMVKREDSWQKRLDKETEKKRRTEEAYKNAMTELKKKSHFGGPDYEEGPNSLINEEEFFDAVEAALDRQDKIEEQSQSEKVRLHWPTSLPSGDAFSSVGTHRFVQKVEEMVQNHMTYSLQDVGGDANWQLVVEEGEMKVYRREVEENGIVLDPLKATHAVKGVTGHEVCNYFWNVDVRNDWETTIENFHVVETLADNAIIIYQTHKRVWPASQRDVLYLSVIRKIPALTENDPETWIVCNFSVDHDSAPLNNRCVRAKINVAMICQTLVSPPEGNQEISRDNILCKITYVANVNPGGWAPASVLRAVAKREYPKFLKRFTSYVQEKTAGKPILF
binds | Recombinant human CERT S132A/13A purified from Sf21 cells (natural protein, UniProt Q9Y5P4-2 1-598, looked up, Ceramide transport protein CERT (GPBPΔ26), human, printed length 598 amino acids; The template plasmid is named pBS/nHAcFL-CERT, which may mean a further C-terminal FLAG tag; also called S132/13A; not shown: HA, N-terminal, kept) MSDNQSWNSSGSEEDPETESGPPVERCGVLSKWTNYIHGWQDRWVVLKNNALSYYKSEDETEYGCRGSICLSKAVITPHDFDECRFDISVNDSVWYLRAQDPDHRQQWIDAIEQHKTESGYGSESSLRRHGAMVSLVSGASGYSATSTSSFKKGHSLREKLAEMETFRDILCRQVDTLQKYFDACADAVSKDELQRDKVVEDDEDDFPTTRSDGDFLHSTNGNKEKLFPHVTPKGINGIDFKGEAITFKATTAGILATLSHCIELMVAAEDSWQAALDAETEAAAATEEAYANAMTELAAASHFGGPDYEEGPNSLINEEEFFDAVEAALDRQDKIEEQSQSEKVRLHWPTSLPSGDAFSSVGTHRFVQKVEEMVQNHMTYSLQDVGGDANWQLVVEEGEMKVYRREVEENGIVLDPLKATHAVKGVTGHEVCNYFWNVDVRNDWETTIENFHVVETLADNAIIIYQTHKRVWPASQRDVLYLSVIRKIPALTENDPETWIVCNFSVDHDSAPLNNRCVRAKINVAMICQTLVSPPEGNQEISRDNILCKITYVANVNPGGWAPASVLRAVAKREYPKFLKRFTSYVQEKTAGKPILF
binds | N-terminal HA-tagged CERT 13A (protein, UniProt Q9Y5P4-2 1-598) MSDNQSWNSSGSEEDPETESGPPVERCGVLSKWTNYIHGWQDRWVVLKNNALSYYKSEDETEYGCRGSICLSKAVITPHDFDECRFDISVNDSVWYLRAQDPDHRQQWIDAIEQHKTESGYGSESSLRRHGSMVSLVSGASGYSATSTSSFKKGHSLREKLAEMETFRDILCRQVDTLQKYFDACADAVSKDELQRDKVVEDDEDDFPTTRSDGDFLHSTNGNKEKLFPHVTPKGINGIDFKGEAITFKATTAGILATLSHCIELMVAAEDSWQAALDAETEAAAATEEAYANAMTELAAASHFGGPDYEEGPNSLINEEEFFDAVEAALDRQDKIEEQSQSEKVRLHWPTSLPSGDAFSSVGTHRFVQKVEEMVQNHMTYSLQDVGGDANWQLVVEEGEMKVYRREVEENGIVLDPLKATHAVKGVTGHEVCNYFWNVDVRNDWETTIENFHVVETLADNAIIIYQTHKRVWPASQRDVLYLSVIRKIPALTENDPETWIVCNFSVDHDSAPLNNRCVRAKINVAMICQTLVSPPEGNQEISRDNILCKITYVANVNPGGWAPASVLRAVAKREYPKFLKRFTSYVQEKTAGKPILF
